{"source": "the supplement of paper PMC8728848", "assay_in_all_cases": "glycan array binding signal (z-score within array); higher = stronger binding", "settings_in_all_cases": "glycan notation: IUPAC condensed, linker removed", "key": {"[1]": {"target": "Fuc(a1-2)Gal", "outline": "(§1)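 Glycan array data were curated from 3228 arrays in the Consortium for Functional Glycomics database and kept only where the protein sequence was available. Glycan names were converted to IUPAC-condensed notation, and columns mapping to the same glycan were averaged. The binding signal is a within-array Z-score, averaged across arrays of the same protein sequence at different concentrations or buffers and across linkers. Negative Z-scores can be read as non-binding.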"}, "[2]": {"target": "Fuc(a1-2)Gal(b1-3)GalNAc", "outline": "as §1"}, "[3]": {"target": "Fuc(a1-2)Gal(b1-3)GalNAc(a1-3)[Fuc(a1-2)]Gal(b1-4)Glc", "outline": "as §1"}, "[4]": {"target": "Fuc(a1-2)Gal(b1-3)GalNAc(a1-3)[Fuc(a1-2)]Gal(b1-4)GlcNAc", "outline": "as §1"}, "[5]": {"target": "Fuc(a1-2)Gal(b1-3)GalNAc(b1-3)Gal", "outline": "as §1"}, "[6]": {"target": "Fuc(a1-2)Gal(b1-3)GalNAc(b1-3)Gal(a1-4)Gal(b1-4)Glc", "outline": "as §1"}, "[7]": {"target": "Fuc(a1-2)Gal(b1-3)GalNAc(b1-4)[Neu5Ac(a2-3)]Gal(b1-4)Glc", "outline": "as §1"}, "[8]": {"target": "Fuc(a1-2)Gal(b1-3)GlcNAc", "outline": "as §1"}, "[9]": {"target": "Fuc(a1-2)Gal(b1-3)GlcNAc(b1-2)Man(a1-3)[Fuc(a1-2)Gal(b1-3)GlcNAc(b1-2)Man(a1-6)]Man(b1-4)GlcNAc(b1-4)GlcNAc", "outline": "as §1"}, "[10]": {"target": "Fuc(a1-2)Gal(b1-3)GlcNAc(b1-2)Man(a1-3)[Fuc(a1-2)Gal(b1-3)GlcNAc(b1-2)Man(a1-6)]Man(b1-4)GlcNAc(b1-4)[Fuc(a1-6)]GlcNAc", "outline": "as §1"}, "[11]": {"target": "Fuc(a1-2)Gal(b1-3)GlcNAc(b1-3)Gal(b1-4)Glc", "outline": "as §1"}, "[12]": {"target": "Fuc(a1-2)Gal(b1-3)GlcNAc(b1-3)GalNAc", "outline": "as §1"}, "[13]": {"target": "Fuc(a1-2)Gal(b1-3)GlcNAc(b1-3)[Fuc(a1-2)Gal(b1-3)GlcNAc(b1-6)]GalNAc", "outline": "as §1"}, "[14]": {"target": "Fuc(a1-2)Gal(b1-3)GlcNAc(b1-3)[Gal(b1-4)GlcNAc(b1-6)]Gal(b1-4)Glc", "outline": "as §1"}, "[15]": {"target": "Fuc(a1-2)Gal(b1-3)GlcNAc(b1-3)[Neu5Ac(a2-6)Gal(b1-4)GlcNAc(b1-6)]Gal(b1-4)Glc", "outline": "as §1"}, "[16]": {"target": "Fuc(a1-2)Gal(b1-3)GlcNAc6S", "outline": "as §1"}, "[17]": {"target": "Fuc(a1-2)Gal(b1-3)[Fuc(a1-4)]GlcNAc", "outline": "as §1"}, "[18]": {"target": "Fuc(a1-2)Gal(b1-3)[Fuc(a1-4)]GlcNAc(b1-2)Man(a1-3)[Fuc(a1-2)Gal(b1-3)[Fuc(a1-4)]GlcNAc(b1-2)Man(a1-3)]Man(b1-4)GlcNAc(b1-4)GlcNAc", "outline": "as §1"}, "[19]": {"target": "Fuc(a1-2)Gal(b1-3)[Fuc(a1-4)]GlcNAc(b1-2)Man(a1-3)[Fuc(a1-2)Gal(b1-3)[Fuc(a1-4)]GlcNAc(b1-2)Man(a1-6)]Man(b1-4)GlcNAc(b1-4)[Fuc(a1-6)]GlcNAc(b1-4)[Fuc(a1-6)]GlcNAc", "outline": "as §1"}, "[20]": {"target": "Fuc(a1-2)Gal(b1-3)[Fuc(a1-4)]GlcNAc(b1-3)[Fuc(a1-3)[Gal(b1-4)]GlcNAc(b1-6)]Gal(b1-4)Glc", "outline": "as §1"}, "[21]": {"target": "Fuc(a1-2)Gal(b1-3)[Fuc(a1-4)]GlcNAc(b1-3)[Gal(b1-4)GlcNAc(b1-6)]Gal(b1-4)Glc", "outline": "as §1"}, "[22]": {"target": "Fuc(a1-2)Gal(b1-4)Fuc(a1-3)]GlcNAc(b1-2)Man(a1-3)[Fuc(a1-2)Gal(b1-4)[Fuc(a1-3)]GlcNAc(b1-2)Man(a1-6)]Man(b1-4)GlcNAc(b1-4)GlcNAc", "outline": "as §1"}, "[23]": {"target": "Fuc(a1-2)Gal(b1-4)Glc", "outline": "as §1"}, "[24]": {"target": "Fuc(a1-2)Gal(b1-4)Glc6S", "outline": "as §1"}, "[25]": {"target": "Fuc(a1-2)Gal(b1-4)GlcNAc", "outline": "as §1"}, "[26]": {"target": "Fuc(a1-2)Gal(b1-4)GlcNAc(b1-2)Man", "outline": "as §1"}, "[27]": {"target": "Fuc(a1-2)Gal(b1-4)GlcNAc(b1-2)Man(a1-3)[Fuc(a1-2)Gal(b1-4)GlcNAc(b1-2)Man(a1-6)]Man(b1-4)GlcNAc(b1-4)GlcNAc", "outline": "as §1"}, "[28]": {"target": "Fuc(a1-2)Gal(b1-4)GlcNAc(b1-2)Man(a1-3)[Fuc(a1-2)Gal(b1-4)GlcNAc(b1-2)Man(a1-6)]Man(b1-4)GlcNAc(b1-4)[Fuc(a1-6)]GlcNAc", "outline": "as §1"}, "[29]": {"target": "Fuc(a1-2)Gal(b1-4)GlcNAc(b1-2)[Fuc(a1-2)Gal(b1-4)GlcNAc(b1-4)]Man(a1-3)[Fuc(a1-2)Gal(b1-4)GlcNAc(b1-2)Man(a1-6)]Man(b1-4)GlcNAc(b1-4)GlcNAc", "outline": "as §1"}, "[30]": {"target": "Fuc(a1-2)Gal(b1-4)GlcNAc(b1-3)Gal(b1-4)GlcNAc", "outline": "as §1"}}, "note": "This is one part of the list.", "data": [{"binder": "pTFF2 (Sus scrofa), P01359 (protein) KPAACRCSRQDPKNRVNCGFPGITSDQCFTSGCCFDSQVPGVPWCFKPLPAQESEECVMEVSARKNCGYPGISPEDCAARNCCFSDTIPEVPWCFFPMSVEACHY", "values": [{"measurement": "glycan array binding signal (z-score)", "setting": "[1]", "result": -0.498}, {"measurement": "glycan array binding signal (z-score)", "setting": "[2]", "result": 0.422}, {"measurement": "glycan array binding signal (z-score)", "setting": "[3]", "result": -0.793}, {"measurement": "glycan array binding signal (z-score)", "setting": "[4]", "result": -0.918}, {"measurement": "glycan array binding signal (z-score)", "setting": "[5]", "result": -0.826}, {"measurement": "glycan array binding signal (z-score)", "setting": "[6]", "result": -0.047}, {"measurement": "glycan array binding signal (z-score)", "setting": "[7]", "result": 1.92}, {"measurement": "glycan array binding signal (z-score)", "setting": "[8]", "result": -0.922}, {"measurement": "glycan array binding signal (z-score)", "setting": "[9]", "result": 1.71}, {"measurement": "glycan array binding signal (z-score)", "setting": "[10]", "result": -0.351}, {"measurement": "glycan array binding signal (z-score)", "setting": "[11]", "result": 0.538}, {"measurement": "glycan array binding signal (z-score)", "setting": "[12]", "result": -0.489}, {"measurement": "glycan array binding signal (z-score)", "setting": "[13]", "result": 0.143}, {"measurement": "glycan array binding signal (z-score)", "setting": "[14]", "result": 1.25}, {"measurement": "glycan array binding signal (z-score)", "setting": "[15]", "result": -0.709}, {"measurement": "glycan array binding signal (z-score)", "setting": "[16]", "result": -1.21}, {"measurement": "glycan array binding signal (z-score)", "setting": "[17]", "result": 0.425}, {"measurement": "glycan array binding signal (z-score)", "setting": "[18]", "result": -2.01}, {"measurement": "glycan array binding signal (z-score)", "setting": "[19]", "result": -0.292}, {"measurement": "glycan array binding signal (z-score)", "setting": "[20]", "result": -0.099}, {"measurement": "glycan array binding signal (z-score)", "setting": "[21]", "result": -0.307}, {"measurement": "glycan array binding signal (z-score)", "setting": "[22]", "result": 0.412}, {"measurement": "glycan array binding signal (z-score)", "setting": "[23]", "result": 0.762}, {"measurement": "glycan array binding signal (z-score)", "setting": "[24]", "result": -0.096}, {"measurement": "glycan array binding signal (z-score)", "setting": "[25]", "result": -0.534}, {"measurement": "glycan array binding signal (z-score)", "setting": "[26]", "result": -0.686}, {"measurement": "glycan array binding signal (z-score)", "setting": "[27]", "result": 0.121}, {"measurement": "glycan array binding signal (z-score)", "setting": "[28]", "result": 0.732}, {"measurement": "glycan array binding signal (z-score)", "setting": "[29]", "result": 1.61}, {"measurement": "glycan array binding signal (z-score)", "setting": "[30]", "result": 0.988}]}]}
